For some assays here: For at least one compound, name, drawing or mass did not settle the structure. Some entries share one result that the patent states for a list of compounds.
What was measured:
collagenase mRNA = experiment: Effect of other anti-microtubule agents on IL-1 induced collagenase expression in primary chondrocytes; assay type: cell-based, calf; settings: chondrocytes pre-incubated 6 hours with agent, then IL-1 20 ng/ml 18 hours
[1] = test system: carrageenan-induced paw edema; experiment: Rat carrageenan-induced paw edema model, paw swelling; assay type: in vivo; settings: MePredAc alone, 0.01, 0.03, 0.1 mg/kg
Experimental: A dose-range finding study was performed to determine the anti-inflammatory activity of various ratios of methyl prednisolone acetate and amoxapine in a rat carrageenan-induced paw edema model. […] The molar ratio of methyl prednisolone acetate to amoxapine ranged from 1:1 to 1:300, using total doses of methyl prednisolone acetate of 0.01, 0.03 or 0.1 mg/kg.
The test agent (a combination of methyl prednisolone acetate and amoxapine), vehicle control, or reference agents (methyl prednisolone acetate, amoxapine, or Depo-Medrol®) were administered in the left hind foot pad of rats. After 60 minutes, paw edema was induced by injection of 100 μl of 1% carrageenan in the same foot pad. The paw volume was measured with a water displacement plethysmometer immediately prior to test agent injection (T-1h), at the time of carrageenan injection (T0h), and at T6h. Animals were euthanized by carbon dioxide inhalation. Paw tissue samples were collected and flash frozen in liquid nitrogen. Samples were assayed for TNF-α by enzyme-linked immunoassay (ELISA).

SMILES: CCOC(=O)CN [glycine ethyl ester]
- concentration preventing IL-1-induced collagenase expression (as low as) (collagenase mRNA): ≤ 100 nM

SMILES: CC(=O)OCC(=O)[C@@]1(O)CC[C@H]2[C@@H]3C[C@H](C)C4=CC(=O)C=C[C@]4(C)[C@H]3[C@@H](O)C[C@@]21C [methyl prednisolone acetate, methylprednisolone acetate]
- reduction in paw edema, in words [1]: dose-dependent reduction in paw edema
